Reference: patent US20250073249A1, “STEROID COMPOUND, AND PREPARATION METHOD THEREFOR AND USE THEREOF” (SHANGHAI INSTITUTE OF MATERIA MEDICA, CHINESE ACADEMY OF …, priority 2022, published 2025)
pIC50: −log10 of the molar value.

System: LNCaP cells
Assay: In vitro LNCaP cell proliferation inhibition test (CellTiter-Glo)
Assay type: cell-based
Conditions: Homo sapiens, 6 days, read-out: Anti-proliferative activity IC50
Procedure: LNCaP cells were cultured in RPMI-1640 medium supplemented with 10% fetal bovine serum (FBS) at 37° C. with 5% CO2. The cells were then digested with trypsin and counted using an automated cell counter to determine cell density. The cell suspension was diluted to the desired density in growth medium. Subsequently, 100 μL of the cell suspension was seeded into 96-well plates and incubated at 37° C. with 5% CO2 for 24 hours. 10 μL of drug solution (including 3-fold serial dilutions of compounds or DMSO) was added to each well, and the plates were incubated at 37° C. with 5% CO2 for 6 days. Prior to measurement, the assay plates were equilibrated to room temperature. 40 μL of CellTiter-Glo® reagent was added to each well. The plates were mixed on an orbital shaker for 2 minutes to induce cell lysis. After incubation at room temperature for 60 minutes to stabilize the luminescence signal, the plates were read on an Envision plate reader.

CNC(=O)c1ccc(N2C(=S)N(c3ccc(C#N)c(C(F)(F)F)c3)C(=O)C2(C)C)cc1F [Enzalutamide, enzalutamide, reference compound]
pIC50: 6.34
